Data published in publication PMC6615629, “Hsp70-nucleotide exchange factor (NEF) Fes1 has non-NEF roles in degradation of gluconeogenic enzymes and cell wall integrity” (PLoS Genetics, 2019).
These are yes or no findings as the source states them, for the method shown. A result given as binding can be weak or reduced; the word gives no strength. Sequences can lack the tags named with a protein.

Target: GST-Fes1ΔRD (yeast (S. cerevisiae))
Assay: pull-down; GST-Fes1 (wild type or mutant, or GST alone) pulled down on glutathione resin; reactions with two or all three proteins; 6 μg each of His6-Fbp1 (1.6 μM), Hsp70 (0.9 μM) and GST-Fes1 (1.09 μM), with or without ATP, ADP or AMP (2.5 mM); 50 mM Tris-HCl pH 7.5, 150 mM NaCl, 2% glycerol, 5 mM MgCl2; 30 min at 4°C; stained SDS-PAGE gels; both purified

binding: binds
B1: His6-Fbp1 (enzyme, yeast (S. cerevisiae), UniProt P09201 1-348, looked up)
chain: MPTLVNGPRRDSTEGFDTDIITLPRFIIEHQKQFKNATGDFTLVLNALQFAFKFVSHTIRRAELVNLVGLAGASNFTGDQQKKLDVLGDEIFINAMRASGIIKVLVSEEQEDLIVFPTNTGSYAVCCDPIDGSSNLDAGVSVGTIASIFRLLPDSSGTINDVLRCGKEMVAACYAMYGSSTHLVLTLGDGVDGFTLDTNLGEFILTHPNLRIPPQKAIYSINEGNTLYWNETIRTFIEKVKQPQADNNNKPFSARYVGSMVADVHRTFLYGGLFAYPCDKKSPNGKLRLLYEAFPMAFLMEQAGGKAVNDRGERILDLVPSHIHDKSSIWLGSSGEIDKFLDHIGKSQ
notes: Fbp1, yeast gluconeogenic enzyme; the initiator methionine is present in the purified protein and is counted as residue 1; also called wild type His6-Fbp1; not shown: His6, N-terminal, kept
